In patent US20090304721A1, “TOXIN […] RECEPTOR ANTIBODIES” (priority 2005, published 2009):
Results are given in words; binding and its absence hold for the method and conditions named. Some binding calls cover weakened binding; strength is not graded here. Blank lines part the entries; values can stand above or below the binder they belong to.

The chains behind the UniProt entries cited, without tags or fusion partners. Residues count along the entry.
UniProt P29317, residues 24-976: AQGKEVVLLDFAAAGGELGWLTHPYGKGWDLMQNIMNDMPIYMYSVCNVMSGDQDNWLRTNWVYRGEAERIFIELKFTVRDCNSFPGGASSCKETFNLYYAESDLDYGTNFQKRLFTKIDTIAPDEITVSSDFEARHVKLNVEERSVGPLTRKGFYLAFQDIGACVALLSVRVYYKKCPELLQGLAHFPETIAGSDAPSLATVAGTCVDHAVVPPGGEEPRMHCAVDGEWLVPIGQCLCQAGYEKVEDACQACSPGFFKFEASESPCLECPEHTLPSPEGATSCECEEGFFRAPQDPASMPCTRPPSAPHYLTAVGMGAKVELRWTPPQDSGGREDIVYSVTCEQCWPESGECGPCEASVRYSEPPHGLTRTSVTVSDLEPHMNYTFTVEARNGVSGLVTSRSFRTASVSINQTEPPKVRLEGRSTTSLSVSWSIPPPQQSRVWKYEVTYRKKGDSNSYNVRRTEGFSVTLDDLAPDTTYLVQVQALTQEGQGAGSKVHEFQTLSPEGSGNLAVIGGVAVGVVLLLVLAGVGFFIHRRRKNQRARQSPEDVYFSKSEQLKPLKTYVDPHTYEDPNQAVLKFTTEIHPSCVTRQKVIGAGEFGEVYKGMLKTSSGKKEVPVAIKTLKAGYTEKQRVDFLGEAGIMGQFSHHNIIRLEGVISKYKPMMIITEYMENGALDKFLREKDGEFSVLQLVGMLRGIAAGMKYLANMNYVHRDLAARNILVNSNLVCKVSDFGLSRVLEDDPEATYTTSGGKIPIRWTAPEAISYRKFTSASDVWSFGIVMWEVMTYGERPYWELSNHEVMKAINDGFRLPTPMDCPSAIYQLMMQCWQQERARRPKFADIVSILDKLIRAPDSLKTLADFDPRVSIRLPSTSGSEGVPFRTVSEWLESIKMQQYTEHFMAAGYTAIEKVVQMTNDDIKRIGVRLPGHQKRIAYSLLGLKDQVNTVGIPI
UniProt D3ZBN3, residues 23-977: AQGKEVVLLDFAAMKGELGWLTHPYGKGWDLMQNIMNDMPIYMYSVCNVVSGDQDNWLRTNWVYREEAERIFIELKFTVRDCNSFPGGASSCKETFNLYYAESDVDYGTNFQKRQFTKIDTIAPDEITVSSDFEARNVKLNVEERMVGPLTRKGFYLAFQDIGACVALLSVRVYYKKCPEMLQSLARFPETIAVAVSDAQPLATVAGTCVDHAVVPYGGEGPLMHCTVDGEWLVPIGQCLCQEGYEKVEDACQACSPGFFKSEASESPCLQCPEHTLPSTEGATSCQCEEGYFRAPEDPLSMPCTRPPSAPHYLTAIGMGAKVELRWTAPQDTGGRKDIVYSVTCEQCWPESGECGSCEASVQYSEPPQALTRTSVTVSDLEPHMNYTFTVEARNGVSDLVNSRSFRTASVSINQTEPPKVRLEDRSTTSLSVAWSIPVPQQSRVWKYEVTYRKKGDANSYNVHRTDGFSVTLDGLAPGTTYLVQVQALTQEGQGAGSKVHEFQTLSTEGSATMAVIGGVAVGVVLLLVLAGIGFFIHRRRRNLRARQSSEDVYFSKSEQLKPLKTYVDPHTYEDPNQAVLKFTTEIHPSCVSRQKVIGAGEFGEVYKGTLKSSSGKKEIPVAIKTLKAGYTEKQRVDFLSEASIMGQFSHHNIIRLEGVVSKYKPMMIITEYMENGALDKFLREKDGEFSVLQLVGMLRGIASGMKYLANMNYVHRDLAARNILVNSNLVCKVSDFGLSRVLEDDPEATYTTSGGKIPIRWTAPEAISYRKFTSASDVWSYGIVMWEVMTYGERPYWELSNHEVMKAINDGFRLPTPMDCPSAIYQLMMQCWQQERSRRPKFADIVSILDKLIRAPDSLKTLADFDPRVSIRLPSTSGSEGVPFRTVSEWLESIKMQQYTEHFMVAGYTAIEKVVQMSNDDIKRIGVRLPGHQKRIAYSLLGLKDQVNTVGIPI

Experiments:
[1] = molecular target: human EphA2 expressed on cells (human) (UniProt P29317); assay: immunofluorescence of PC3 cells labeled with 50 ug/ml antibody at 4 C, fixed, permeabilized, AlexaFluor 488 secondary antibody
[2] = molecular target: rat EphA2 expressed on cells (rat) (UniProt D3ZBN3); assay: flow cytometry on tumor cell lines, 1 ug antibody, PE anti-human IgG

- binding [1]: binds
B1: anti-EphA2 antibody G5 (antibody, V domains shown)
VH: QMQLVQSGPEVKKPGTSVKVSCKASGFTFTDYSMNWVRQARGQRLEWIGFIRNKANDYTTEYSASVKGRVTITRDMSTSTAYMELSSLRSEDTAVYYCARYPRYHAMDSWGQGTSVTVSS
VL: DIQMTQSPSSLSASVGDRVTITCRASQSISNNLHWYQQKPGKAPKLLIKYVFQSISGVPSRFSGSGSGTDFTFTISSLQPEDFATYYCQQSNSWPLTFGGGTKVEIKG

- binding [2]: binds
B2: anti-EphA2 antibody 1H3 (antibody, V domains shown)
VH: EVQLLESGGGLVQPGGSLRLSCAASGFTFSMYAMRWVRQAPGKGLEWVSVIGPSGGWTPYADSVKGRFTISRDNSKNTLYLQMNSLRAEDTAVYYCARDRGIYGMDVWGQGTTVTVSS
VL: DIQMTQSPSFLSASVGDRVTITCRASQGISSYLAWYQQKPGKAPKLLIYAASTLQSGVPSRFSGSGSGTEFTLTISSLQPEDFATYYCLELNNYPFTFGLGTKVHIK

- binding [2]: binds
B3: anti-EphA2 antibody 3F2 (antibody, V domains shown)
VH: EVQLVESGGGVVRPGGSLRLSCAASGFTVSDYSMNWVRQAPGKGLEWIGFIRNKANAYTTEYSASVKGRFTISRDDSKNTLYLQMNSLKTEDTAVYYCTTYPRYHAMDSWGQGTMVTVSS
VL: AIQLTQSPSSLSASVGDRVTITCRASQSISNNLHWYLQKPGQSPQLLIYYGFQSISGVPSRFSGSGSGTDFTLTISSLQPEDFATYYCQQANSWPLTFGGGTKLEIK
